Measured values as given in PMC12669712.
These are yes or no findings as the source states them, for the method shown. Binding seen in cells or lysates may run through a third protein. Some binding calls cover weakened binding; strength is not graded here.

By UniProt entry, the sequences of proteins in these tests, tags left out.
UniProt P46938: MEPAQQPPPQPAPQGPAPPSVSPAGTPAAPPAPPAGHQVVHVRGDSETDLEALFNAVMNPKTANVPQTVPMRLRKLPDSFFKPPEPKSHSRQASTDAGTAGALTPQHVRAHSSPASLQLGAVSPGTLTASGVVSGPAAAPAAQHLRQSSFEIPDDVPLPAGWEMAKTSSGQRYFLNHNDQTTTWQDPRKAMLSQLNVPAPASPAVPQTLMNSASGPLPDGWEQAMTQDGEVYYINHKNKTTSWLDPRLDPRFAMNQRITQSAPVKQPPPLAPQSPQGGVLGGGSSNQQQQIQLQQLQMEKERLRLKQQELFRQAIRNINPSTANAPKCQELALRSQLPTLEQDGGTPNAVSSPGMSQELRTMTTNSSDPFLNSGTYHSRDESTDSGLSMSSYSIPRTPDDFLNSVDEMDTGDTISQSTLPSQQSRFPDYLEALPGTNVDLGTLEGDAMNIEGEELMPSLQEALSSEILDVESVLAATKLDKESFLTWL

Columns and labels:
Test in all cases: co-IP; KSR1+/+ MEF lysates in Buffer A; protein A-Sepharose with anti-MST1, anti-LATS1 or anti-YAP antibodies, 3 h at 4 °C; rabbit IgG as control; in Fig. 8 cells serum-starved for 16 h, then EGF or vehicle for 5 min
[1] = target: T1, LATS1, endogenous in MEFs (mouse (endogenous in MEFs)) (UniProt Q8BYR2)
T1 sequence: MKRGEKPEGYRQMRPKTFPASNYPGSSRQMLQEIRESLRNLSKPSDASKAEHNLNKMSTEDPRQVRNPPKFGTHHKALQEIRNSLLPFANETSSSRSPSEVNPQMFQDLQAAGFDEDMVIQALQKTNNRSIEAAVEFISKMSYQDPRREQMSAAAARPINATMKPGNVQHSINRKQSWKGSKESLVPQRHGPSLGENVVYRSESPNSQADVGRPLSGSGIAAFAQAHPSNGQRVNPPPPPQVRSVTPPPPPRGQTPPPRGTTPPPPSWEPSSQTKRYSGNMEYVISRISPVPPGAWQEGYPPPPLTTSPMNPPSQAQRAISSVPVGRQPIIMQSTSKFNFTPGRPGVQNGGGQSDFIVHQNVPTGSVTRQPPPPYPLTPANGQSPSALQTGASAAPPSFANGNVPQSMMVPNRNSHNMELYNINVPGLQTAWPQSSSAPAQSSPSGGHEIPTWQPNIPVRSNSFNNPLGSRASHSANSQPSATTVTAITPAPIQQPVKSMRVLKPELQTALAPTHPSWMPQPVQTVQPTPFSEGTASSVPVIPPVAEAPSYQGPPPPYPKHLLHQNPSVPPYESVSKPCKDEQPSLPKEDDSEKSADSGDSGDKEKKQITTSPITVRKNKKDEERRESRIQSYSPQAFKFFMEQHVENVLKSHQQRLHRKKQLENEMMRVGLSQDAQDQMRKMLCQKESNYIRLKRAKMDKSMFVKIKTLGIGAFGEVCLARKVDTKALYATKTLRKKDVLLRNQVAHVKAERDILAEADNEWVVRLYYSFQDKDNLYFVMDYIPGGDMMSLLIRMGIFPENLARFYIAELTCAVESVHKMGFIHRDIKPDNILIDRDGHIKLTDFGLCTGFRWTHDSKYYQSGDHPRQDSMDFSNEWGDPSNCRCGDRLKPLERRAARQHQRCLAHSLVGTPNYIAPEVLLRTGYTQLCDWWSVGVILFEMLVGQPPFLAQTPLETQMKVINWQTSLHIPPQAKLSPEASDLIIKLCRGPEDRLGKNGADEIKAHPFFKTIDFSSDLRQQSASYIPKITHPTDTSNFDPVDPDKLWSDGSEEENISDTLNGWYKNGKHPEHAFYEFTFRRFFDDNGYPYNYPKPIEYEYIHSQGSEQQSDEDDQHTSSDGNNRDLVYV

[2] = target: T2, MST1, endogenous in MEFs (mouse (endogenous in MEFs)) (UniProt Q9JI11)
T2 sequence: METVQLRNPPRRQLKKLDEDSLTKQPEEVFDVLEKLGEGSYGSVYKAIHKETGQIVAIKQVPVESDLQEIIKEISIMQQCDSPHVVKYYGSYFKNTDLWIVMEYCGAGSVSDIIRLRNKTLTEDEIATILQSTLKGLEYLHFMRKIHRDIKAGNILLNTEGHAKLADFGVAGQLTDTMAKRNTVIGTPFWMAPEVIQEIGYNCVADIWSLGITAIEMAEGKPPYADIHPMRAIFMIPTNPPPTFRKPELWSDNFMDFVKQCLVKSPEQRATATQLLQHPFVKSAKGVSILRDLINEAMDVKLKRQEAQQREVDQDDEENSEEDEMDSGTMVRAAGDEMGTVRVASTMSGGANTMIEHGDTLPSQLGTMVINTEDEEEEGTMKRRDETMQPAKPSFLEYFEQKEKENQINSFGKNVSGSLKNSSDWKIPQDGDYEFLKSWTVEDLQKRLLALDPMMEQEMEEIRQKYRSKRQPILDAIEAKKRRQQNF

[3] = target: YAP, endogenous in MEFs (mouse (endogenous in MEFs)) (UniProt P46938)

Measured: binding

B1: KSR1 stably overexpressed in KSR1+/+ MEFs (protein, UniProt Q61097 1-873)
chain: MDRAALRAAAMGEKKEGGGGGAAADGGAGAAVSRALQQCGQLQKLIDISIGSLRGLRTKCSVSNDLTQQEIRTLEAKLVKYICKQQQSKLSVTPSDRTAELNSYPRFSDWLYIFNVRPEVVQEIPQELTLDALLEMDEAKAKEMLRRWGASTEECSRLQQALTCLRKVTGLGGEHKMDSGWSSTDARDSSLGPPMDMLSSLGRAGASTQGPRSISVSALPASDSPVPGLSEGLSDSCIPLHTSGRLTPRALHSFITPPTTPQLRRHAKLKPPRTPPPPSRKVFQLLPSFPTLTRSKSHESQLGNRIDDVTPMKFELPHGSPQLVRRDIGLSVTHRFSTKSWLSQVCNVCQKSMIFGVKCKHCRLKCHNKCTKEAPACRITFLPLARLRRTESVPSDINNPVDRAAEPHFGTLPKALTKKEHPPAMNLDSSSNPSSTTSSTPSSPAPFLTSSNPSSATTPPNPSPGQRDSRFSFPDISACSQAAPLSSTADSTRLDDQPKTDVLGVHEAEAEEPEAGKSEAEDDEEDEVDDLPSSRRPWRGPISRKASQTSVYLQEWDIPFEQVELGEPIGQGRWGRVHRGRWHGEVAIRLLEMDGHNQDHLKLFKKEVMNYRQTRHENVVLFMGACMNPPHLAIITSFCKGRTLHSFVRDPKTSLDINKTRQIAQEIIKGMGYLHAKGIVHKDLKSKNVFYDNGKVVITDFGLFGISGVVREERRENQLKLSHDWLCYLAPEIVREMIPGRDEDQLPFSKAADVYAFGTVWYELQARDWPFKHQPAEALIWQIGSGEGVRRVLASVSLGKEVGEILSACWAFDLQERPSFSLLMDMLERLPKLNRRLSHPGHFWKSADINSSKVMPRFERFGLGTLESGNPKM
binds: all assays above
